Data from PMC7734798 (ACS Medicinal Chemistry Letters, 2020).

Conditions: PAMPA

- BBB penetration estimation, CNS (+/−): CNS +
SMILES: COc1cc2c(cc1OC)C(=O)C(CC1CCN(Cc3ccccc3)CC1)C2 (stereo not shown) [donepezil]
